Measured values from publication PMC4893664.

Target: DYNC1I1-GFP (cytoplasmic dynein intermediate chain DYNC1I1, GFP-tagged)
Assay: co-IP; co-immunoprecipitation of DYNC1I1-GFP and NDE1-MYC in the presence or absence of co-transfected MCRS1-FLAG; resin for this experiment not told (methods name anti-FLAG M2 affinity gel or GFP-Trap)

- binding: binds
B1: NDE1-MYC (protein, UniProt Q9NXR1 1-335)
chain: MEDSGKTFSSEEEEANYWKDLAMTYKQRAENTQEELREFQEGSREYEAELETQLQQIETRNRDLLSENNRLRMELETIKEKFEVQHSEGYRQISALEDDLAQTKAIKDQLQKYIRELEQANDDLERAKRATIMSLEDFEQRLNQAIERNAFLESELDEKENLLESVQRLKDEARDLRQELAVQQKQEKPRTPMPSSVEAERTDTAVQATGSVPSTPIAHRGPSSSLNTPGSFRRGLDDSTGGTPLTPAARISALNIVGDLLRKVGALESKLASCRNLVYDQSPNRTGGPASGRSSKNRDGGERRPSSTSVPLGDKGLDTSCRWLSKSTTRSSSSC

No constants are given. Whether binding was seen depends on the method and setting. Binding seen in cells or lysates may run through a third protein. A result given as binding can be weak or reduced; the word gives no strength. Where a sequence is shown, tags or fusion partners need not be part of it.
